{
  "source": "patent US20090008238A1",
  "about": "“TRANSPORTABLE GAS STERILIZATION UNIT, DISPOSABLE GAS GENERATOR, LIGHT ACTIVATED ANTI-INFECTIVE COATING AND METHOD OF DISINFECTION AND STERILIZATION USING CHLORINE DIOXIDE” (THE ARIZONA BD OF REG ON BEHALF OF THE UNIV OF AZ, priority 2004, published 2009)",
  "data": [
    {"assay": "chlorine dioxide production using photoacid generating (PAG) chemistry and NaClO2", "settings": "about 5 mg PAG ground with about 10 mg NaClO2, Milli-Q H2O, ethanol, sunlight", "units": {"Max. ClO2": "ppm"}, "values": [
      {"substance": "Bis(styryl)benzene", "Max. ClO2": 16},
      {"substance": "diphenyliodonium 9,10-dimethoxyanthracenesulfonate", "Max. ClO2": 5.1},
      {"substance": "Triphenylamine dimethylsulfate", "Max. ClO2": ">250"}
    ]}
  ]
}
